The supplement of paper PMC7646827
Single values are uncertain, as repeats are few or missing.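 All cells are established human bladder cancer lines, one of them grown from a patient-derived xenograft. Viability was read by a luminescent ATP assay as percent inhibition versus vehicle over a seven-point dilution series; the paper calls scores above 59 very active, 30–59 active, 21–29 semi-active, 9–20 low active and below 9 inactive.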

What was measured:
Assay in all cases: drug sensitivity score DSS3 (score 0-100); higher = more sensitive; extreme values may be limits of the assay
Conditions in all cases: culture: 3D, ultra-low attachment; treatment time: 5 days
[1] = system: TCCSUP
[2] = system: UM-UC-17
[3] = system: UM-UC-6
[4] = system: UM-UC-14
[5] = system: UM-UC-1
[6] = system: UM-UC-3
[7] = system: UM-UC-5
[8] = system: UM-UC-9
[9] = system: BC8149
[10] = system: UM-UC-18
[11] = system: UM-UC-15
[12] = system: J82
[13] = system: SCaBER
[14] = system: SW780
[15] = system: 5637
[16] = system: T-24
[17] = system: UM-UC-12

SMILES	drug sensitivity score DSS3 [1]	drug sensitivity score DSS3 [2]	drug sensitivity score DSS3 [3]	drug sensitivity score DSS3 [4]	drug sensitivity score DSS3 [5]	drug sensitivity score DSS3 [6]	drug sensitivity score DSS3 [7]	drug sensitivity score DSS3 [8]	drug sensitivity score DSS3 [9]	drug sensitivity score DSS3 [10]	drug sensitivity score DSS3 [11]	drug sensitivity score DSS3 [12]	drug sensitivity score DSS3 [13]	drug sensitivity score DSS3 [14]	drug sensitivity score DSS3 [15]	drug sensitivity score DSS3 [16]	drug sensitivity score DSS3 [17]
CC(=O)N1CCN(c2ccc(NC(=O)Cc3cnc(-c4ccnc(F)c4)c(C)c3)nc2)CC1 [GNF-6231] (max dose 10000 nM)	0	0	0	0	0	0	0	0	0.307	0	0	0	0	0	0	0	–
CC(C)(O)CNc1ncc(-c2ccnc(Nc3ccnc(Cl)c3)n2)c(CC2CC2)n1 [VPS34-IN1] (max dose 10000 nM)	11.9	2.35	8.65	1.19	8.05	2.02	0	3.68	9.89	0.173	–	0	0	0	14	0	0
COCCNc1cc(NC(=O)N2CCCc3cc(CN4CCN(C)CC4=O)c(C=O)nc32)ncc1C#N [FGF401] (max dose 10000 nM)	0.194	0.649	1.76	0	0	0.343	0	0	0	0	–	0	0	0.337	0.144	0	0
CC(C)(C)C(=O)N1N=CC[C@H]1c1ccccc1 [GSK'963] (max dose 10000 nM)	1.8	0	0	0.265	0	0	0	0	0	0.446	0	0	0	0	0.424	0	–
Cc1cnc(-c2cnc(NCCNc3ccc(C#N)cn3)nc2-c2ccc(Cl)cc2Cl)[nH]1 (max dose 10000 nM)	0	0	0	0	0	0	0	0	0	0	–	0	0	0	0	0.0229	0
N#Cc1cnc(Nc2cc(NC[C@H]3CNCCO3)c(C(F)(F)F)cn2)cn1 (max dose 10000 nM)	8.41	0	8.28	0	0	0	0	0	1.38	1.77	–	0	0	0	2.9	0.469	0
CCOc1cc(N2CCC(O)CC2)ccc1Nc1ncc2c(n1)N(C)c1ccccc1C(=O)N2C [XMD8-92] (max dose 10000 nM)	3.93	0	0.181	2.1	0	1.09	0	0	0	0	–	0	0	0	0	0	0
Cc1cc(F)c(C(=O)Nc2cccc(-c3nncn3C(C)C)n2)cc1-n1cnc(C2CC2)c1 [Selonsertib (GS-4997)] (max dose 10000 nM)	0	0	0	0	0	0	0	0	0	0	–	0	0	0	0.0683	0	0
CN(c1ncccc1CNc1nc(Nc2ccc3c(c2)CC(=O)N3)ncc1C(F)(F)F)S(C)(=O)=O (max dose 10000 nM)	2.07	0	1.46	1.26	1.73	0	0.0891	0	1.25	1.04	–	0.627	0.803	0	2.09	1.5	0.989
CC[C@@H]1C(=O)N(C)c2cnc(Nc3ccc(C(=O)NC4CCN(C)CC4)cc3OC)nc2N1C1CCCC1 [BI 2536] (max dose 10000 nM)	58.1	51.6	0	17.5	0	26	0	–	23.8	0	0	0	0	12.4	49.8	0	–
OC[C@H]1O[C@@H](c2ccc(F)c(Cc3cc4ccccc4s3)c2)[C@H](O)[C@@H](O)[C@@H]1O [Ipragliflozin (ASP1941)] (max dose 10000 nM)	0	0	0	0	0	0	0	0	0	0	–	0	0	0	0	0	0
COc1cc(-c2cc(-c3ccc(Cl)cc3)[nH]c(=O)n2)ccc1O [LIT-927] (max dose 10000 nM)	0	0	0.00837	0	0	0	0	0	0	0	–	0	0	0	0	0.63	0

An excerpt from above, limited to drug sensitivity score DSS3 [1] and drug sensitivity score DSS3 [5].

| SMILES | drug sensitivity score DSS3 [1] | drug sensitivity score DSS3 [5] |
| --- | --- | --- |
| CC(=O)N1CCN(c2ccc(NC(=O)Cc3cnc(-c4ccnc(F)c4)c(C)c3)nc2)CC1 [GNF-6231] (max dose 10000 nM) | 0 | 0 |
| CC(C)(O)CNc1ncc(-c2ccnc(Nc3ccnc(Cl)c3)n2)c(CC2CC2)n1 [VPS34-IN1] (max dose 10000 nM) | 11.9 | 8.05 |
